Assay results as given in article PMC7414107.
Results are given in words; binding and its absence hold for the method and conditions named. Binding seen in cells or lysates may run through a third protein. Some entries that bind do so weakly or less than the wild type.

Sequences of proteins named here, by UniProt entry; tags and fusion partners are left off.
UniProt Q80VP1: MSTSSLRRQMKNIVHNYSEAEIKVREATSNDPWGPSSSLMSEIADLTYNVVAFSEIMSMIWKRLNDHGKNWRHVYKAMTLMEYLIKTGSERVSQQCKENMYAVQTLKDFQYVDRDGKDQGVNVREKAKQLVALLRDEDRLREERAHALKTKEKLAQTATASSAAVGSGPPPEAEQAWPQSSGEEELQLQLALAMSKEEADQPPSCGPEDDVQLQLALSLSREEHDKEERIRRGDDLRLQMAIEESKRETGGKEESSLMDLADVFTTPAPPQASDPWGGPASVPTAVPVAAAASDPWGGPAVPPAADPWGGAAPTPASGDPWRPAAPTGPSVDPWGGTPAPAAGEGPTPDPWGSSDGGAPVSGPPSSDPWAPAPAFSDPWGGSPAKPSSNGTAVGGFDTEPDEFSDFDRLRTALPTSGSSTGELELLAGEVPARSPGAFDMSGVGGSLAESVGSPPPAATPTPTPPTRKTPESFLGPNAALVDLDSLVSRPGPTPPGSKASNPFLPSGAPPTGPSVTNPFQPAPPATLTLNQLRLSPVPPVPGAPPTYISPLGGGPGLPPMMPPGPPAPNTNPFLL

Target: epsin 1 (mouse (endogenous in MAECs)) (UniProt Q80VP1)
Assay: co-IP; endogenous proteins in MAEC lysates; IP with the epsin 1 antibody or the IP3R1 antibody, western blot; cells treated with 100 µg/mL oxLDL, 500 µg/mL cholesterol crystal or 50 µM 7-KC for 30 min (Fig. 1c-f), lysates with or without 10 µM USP2 (Fig. 3g), or oxLDL 4 h with 10 µM MG132 (Fig. 3m)

binding | Binder
binds | E3 ubiquitin-protein ligase Ring Finger Protein 170 (RNF170) (enzyme, UniProt Q8CBG9 1-286) MQRYWRFQDNKIQDICFGVLGESWIQRPVMARYYSEGQSLQQDDSFIEGVSDQVLVAVVVSLALTATLLYALLRNVQQNIHPENQELVRVLREQFQTEQDVPAPARQQFYTEMYCPICLHQASFPVETNCGHLFCGSCIIAYWRYGSWLGAISCPICRQTVTLLLTVFGEDDQSQDVIRLRQDVNDYNRRFSGQPRSIMERIMDLPTLLRHAFREVFSVGGLFWMFRIRIMLCLMGAFFYLISPLDFVPEALFGILGFLDDFFVIFLLLIYISIMYREVITQRLTR
binds | erlin 2 (protein, UniProt Q8BFZ9 1-340) MAQLGAVVAVASSFFCASLFSAVHKIEEGHIGVYYRGGALLTSTSGPGFHLMLPFITSYKSVQTTLQTDEVKNVPCGTSGGVMIYFDRIEVVNFLVPNAVYDIVKNYTADYDKALIFNKIHHELNQFCSVHTLQEVYIELFDQIDENLKLALQQDLTSMAPGLVIQAVRVTKPNIPEAIRRNYELMESEKTKLLIAAQKQKVVEKEAETERKKALIEAEKVAQVAEITYGQKVMEKETEKKISEIEDAAFLAREKAKADAECYTALKIAEANKLKLTPEYLQLMKYKAIASNSKIYFGKDIPNMFMDSAGGLGKQFEGLSDDKLGFGLEDEPLEAPTKEN
binds | erlin 1 (protein, UniProt Q91X78 1-348) MNMTQARLLVAAVVGLVAILLYASIHKIEEGHLAVYYRGGALLTSPSGPGYHIMLPFITTFRSVQTTLQTDEVKNVPCGTSGGVMIYIDRIEVVNMLAPYAVFDIVRNYTADYDKTLIFNKIHHELNQFCSAHTLQEVYIELFDQIDENLKQALQKDLNTMAPGLTIQAVRVTKPKIPEAIRRNFELMEAEKTKLLIAAQKQKVVEKEAETERKRAVIEAEKIAQVAKIRFQQKVMEKETEKRISEIEDAAFLAREKAKADAEYYAAHKYATSNKHKLTPEYLELKKYQAIASNSKIYFGSNIPSMFVDSSCALKYSDGRTGREDSLPPEEAREPSGESPIQNKENAG
